Protein sequences, listed by entry. Tags and fused reporters are not part of them.
UniProt Q9UPY3: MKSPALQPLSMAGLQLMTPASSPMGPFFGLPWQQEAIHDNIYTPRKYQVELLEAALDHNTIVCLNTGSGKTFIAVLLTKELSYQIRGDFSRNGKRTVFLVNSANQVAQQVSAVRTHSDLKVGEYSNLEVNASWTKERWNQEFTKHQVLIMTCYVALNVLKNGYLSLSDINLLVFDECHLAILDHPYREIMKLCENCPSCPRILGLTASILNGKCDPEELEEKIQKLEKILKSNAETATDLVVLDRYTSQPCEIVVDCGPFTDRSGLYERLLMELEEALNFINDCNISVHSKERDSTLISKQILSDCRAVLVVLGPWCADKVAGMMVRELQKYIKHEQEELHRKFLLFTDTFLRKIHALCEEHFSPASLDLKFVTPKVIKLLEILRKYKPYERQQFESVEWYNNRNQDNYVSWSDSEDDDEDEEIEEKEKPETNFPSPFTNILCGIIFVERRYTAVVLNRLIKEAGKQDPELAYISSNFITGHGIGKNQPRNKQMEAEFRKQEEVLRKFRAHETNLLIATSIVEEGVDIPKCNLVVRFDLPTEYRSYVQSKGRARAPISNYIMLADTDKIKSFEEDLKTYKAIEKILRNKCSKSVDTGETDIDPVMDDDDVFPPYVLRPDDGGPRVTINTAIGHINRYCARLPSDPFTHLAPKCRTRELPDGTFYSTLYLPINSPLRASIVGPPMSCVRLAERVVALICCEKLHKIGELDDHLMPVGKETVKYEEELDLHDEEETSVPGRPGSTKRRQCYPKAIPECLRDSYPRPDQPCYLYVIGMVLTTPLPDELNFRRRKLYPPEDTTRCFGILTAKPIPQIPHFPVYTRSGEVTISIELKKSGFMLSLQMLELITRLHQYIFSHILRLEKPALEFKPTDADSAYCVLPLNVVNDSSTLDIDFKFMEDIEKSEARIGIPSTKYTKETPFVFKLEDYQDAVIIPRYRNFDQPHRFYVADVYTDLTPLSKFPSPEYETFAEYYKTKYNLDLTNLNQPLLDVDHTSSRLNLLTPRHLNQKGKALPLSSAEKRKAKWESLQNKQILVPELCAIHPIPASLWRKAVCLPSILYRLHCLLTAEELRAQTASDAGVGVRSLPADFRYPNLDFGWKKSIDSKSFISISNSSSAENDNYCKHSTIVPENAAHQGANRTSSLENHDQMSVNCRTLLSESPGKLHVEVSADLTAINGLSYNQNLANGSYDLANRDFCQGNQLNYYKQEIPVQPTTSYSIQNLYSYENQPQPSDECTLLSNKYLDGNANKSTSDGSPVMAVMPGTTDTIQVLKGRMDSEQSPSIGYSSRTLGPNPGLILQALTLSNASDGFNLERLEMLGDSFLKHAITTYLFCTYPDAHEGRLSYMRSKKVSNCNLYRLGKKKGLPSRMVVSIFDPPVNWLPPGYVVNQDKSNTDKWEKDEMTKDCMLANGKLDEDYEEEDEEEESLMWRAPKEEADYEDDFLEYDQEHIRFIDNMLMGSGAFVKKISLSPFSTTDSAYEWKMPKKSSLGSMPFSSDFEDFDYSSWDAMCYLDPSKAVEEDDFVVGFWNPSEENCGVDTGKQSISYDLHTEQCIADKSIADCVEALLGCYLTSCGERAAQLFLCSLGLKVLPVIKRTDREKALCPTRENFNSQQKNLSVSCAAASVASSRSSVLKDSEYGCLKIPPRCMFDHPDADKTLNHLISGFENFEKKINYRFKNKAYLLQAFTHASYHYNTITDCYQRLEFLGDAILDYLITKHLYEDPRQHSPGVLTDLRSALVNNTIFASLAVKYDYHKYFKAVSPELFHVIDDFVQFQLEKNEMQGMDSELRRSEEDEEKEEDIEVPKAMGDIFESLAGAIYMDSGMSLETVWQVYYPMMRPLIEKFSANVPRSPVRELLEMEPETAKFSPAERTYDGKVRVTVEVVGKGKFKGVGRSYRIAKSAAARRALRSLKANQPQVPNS
UniProt Q9UPQ9: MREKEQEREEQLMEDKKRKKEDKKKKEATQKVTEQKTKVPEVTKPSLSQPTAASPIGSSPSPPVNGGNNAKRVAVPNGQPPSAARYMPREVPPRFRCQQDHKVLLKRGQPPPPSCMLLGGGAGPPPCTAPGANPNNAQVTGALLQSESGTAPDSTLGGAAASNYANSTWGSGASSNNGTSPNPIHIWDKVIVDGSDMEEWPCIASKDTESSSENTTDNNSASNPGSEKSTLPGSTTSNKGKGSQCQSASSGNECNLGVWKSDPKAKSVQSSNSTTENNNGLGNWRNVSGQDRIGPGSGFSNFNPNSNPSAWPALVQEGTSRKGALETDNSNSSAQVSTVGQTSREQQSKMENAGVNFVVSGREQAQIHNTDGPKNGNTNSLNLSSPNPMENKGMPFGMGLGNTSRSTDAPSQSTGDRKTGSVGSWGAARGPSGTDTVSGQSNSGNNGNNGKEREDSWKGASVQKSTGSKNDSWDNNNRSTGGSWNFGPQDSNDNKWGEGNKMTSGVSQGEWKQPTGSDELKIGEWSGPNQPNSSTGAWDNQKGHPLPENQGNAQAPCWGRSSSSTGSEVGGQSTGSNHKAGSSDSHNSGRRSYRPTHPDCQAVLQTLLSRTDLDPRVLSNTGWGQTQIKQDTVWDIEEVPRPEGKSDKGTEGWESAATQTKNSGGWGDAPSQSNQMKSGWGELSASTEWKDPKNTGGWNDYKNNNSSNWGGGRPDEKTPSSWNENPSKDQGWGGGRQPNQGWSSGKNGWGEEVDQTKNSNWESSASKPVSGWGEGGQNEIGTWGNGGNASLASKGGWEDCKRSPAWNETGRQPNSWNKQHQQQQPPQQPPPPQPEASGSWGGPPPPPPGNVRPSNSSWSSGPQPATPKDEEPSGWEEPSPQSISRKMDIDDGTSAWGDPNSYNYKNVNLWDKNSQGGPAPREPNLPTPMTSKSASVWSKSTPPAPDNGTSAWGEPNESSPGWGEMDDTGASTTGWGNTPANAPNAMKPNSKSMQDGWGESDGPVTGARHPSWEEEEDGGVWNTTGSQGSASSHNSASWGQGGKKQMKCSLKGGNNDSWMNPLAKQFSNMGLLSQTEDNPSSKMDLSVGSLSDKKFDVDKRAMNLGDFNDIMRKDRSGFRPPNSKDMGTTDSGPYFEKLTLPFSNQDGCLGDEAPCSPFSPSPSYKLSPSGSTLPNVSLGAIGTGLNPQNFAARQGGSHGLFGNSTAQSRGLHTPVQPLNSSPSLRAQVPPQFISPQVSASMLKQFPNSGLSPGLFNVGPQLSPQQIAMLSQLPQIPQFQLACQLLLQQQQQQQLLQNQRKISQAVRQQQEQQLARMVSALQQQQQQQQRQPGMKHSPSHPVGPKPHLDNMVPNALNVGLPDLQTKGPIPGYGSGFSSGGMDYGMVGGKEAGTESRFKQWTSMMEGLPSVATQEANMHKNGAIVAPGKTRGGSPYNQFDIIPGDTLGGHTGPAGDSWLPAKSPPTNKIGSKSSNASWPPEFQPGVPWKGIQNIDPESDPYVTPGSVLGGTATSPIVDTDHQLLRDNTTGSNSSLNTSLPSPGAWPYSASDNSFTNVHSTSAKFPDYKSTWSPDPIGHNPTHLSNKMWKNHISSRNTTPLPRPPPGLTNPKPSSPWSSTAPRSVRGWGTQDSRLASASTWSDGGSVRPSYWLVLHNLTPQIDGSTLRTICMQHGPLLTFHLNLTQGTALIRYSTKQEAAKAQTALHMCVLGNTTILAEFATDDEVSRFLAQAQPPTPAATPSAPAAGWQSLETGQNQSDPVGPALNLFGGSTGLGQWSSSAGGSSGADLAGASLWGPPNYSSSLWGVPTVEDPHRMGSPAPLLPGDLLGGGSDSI
UniProt Q9HCJ0: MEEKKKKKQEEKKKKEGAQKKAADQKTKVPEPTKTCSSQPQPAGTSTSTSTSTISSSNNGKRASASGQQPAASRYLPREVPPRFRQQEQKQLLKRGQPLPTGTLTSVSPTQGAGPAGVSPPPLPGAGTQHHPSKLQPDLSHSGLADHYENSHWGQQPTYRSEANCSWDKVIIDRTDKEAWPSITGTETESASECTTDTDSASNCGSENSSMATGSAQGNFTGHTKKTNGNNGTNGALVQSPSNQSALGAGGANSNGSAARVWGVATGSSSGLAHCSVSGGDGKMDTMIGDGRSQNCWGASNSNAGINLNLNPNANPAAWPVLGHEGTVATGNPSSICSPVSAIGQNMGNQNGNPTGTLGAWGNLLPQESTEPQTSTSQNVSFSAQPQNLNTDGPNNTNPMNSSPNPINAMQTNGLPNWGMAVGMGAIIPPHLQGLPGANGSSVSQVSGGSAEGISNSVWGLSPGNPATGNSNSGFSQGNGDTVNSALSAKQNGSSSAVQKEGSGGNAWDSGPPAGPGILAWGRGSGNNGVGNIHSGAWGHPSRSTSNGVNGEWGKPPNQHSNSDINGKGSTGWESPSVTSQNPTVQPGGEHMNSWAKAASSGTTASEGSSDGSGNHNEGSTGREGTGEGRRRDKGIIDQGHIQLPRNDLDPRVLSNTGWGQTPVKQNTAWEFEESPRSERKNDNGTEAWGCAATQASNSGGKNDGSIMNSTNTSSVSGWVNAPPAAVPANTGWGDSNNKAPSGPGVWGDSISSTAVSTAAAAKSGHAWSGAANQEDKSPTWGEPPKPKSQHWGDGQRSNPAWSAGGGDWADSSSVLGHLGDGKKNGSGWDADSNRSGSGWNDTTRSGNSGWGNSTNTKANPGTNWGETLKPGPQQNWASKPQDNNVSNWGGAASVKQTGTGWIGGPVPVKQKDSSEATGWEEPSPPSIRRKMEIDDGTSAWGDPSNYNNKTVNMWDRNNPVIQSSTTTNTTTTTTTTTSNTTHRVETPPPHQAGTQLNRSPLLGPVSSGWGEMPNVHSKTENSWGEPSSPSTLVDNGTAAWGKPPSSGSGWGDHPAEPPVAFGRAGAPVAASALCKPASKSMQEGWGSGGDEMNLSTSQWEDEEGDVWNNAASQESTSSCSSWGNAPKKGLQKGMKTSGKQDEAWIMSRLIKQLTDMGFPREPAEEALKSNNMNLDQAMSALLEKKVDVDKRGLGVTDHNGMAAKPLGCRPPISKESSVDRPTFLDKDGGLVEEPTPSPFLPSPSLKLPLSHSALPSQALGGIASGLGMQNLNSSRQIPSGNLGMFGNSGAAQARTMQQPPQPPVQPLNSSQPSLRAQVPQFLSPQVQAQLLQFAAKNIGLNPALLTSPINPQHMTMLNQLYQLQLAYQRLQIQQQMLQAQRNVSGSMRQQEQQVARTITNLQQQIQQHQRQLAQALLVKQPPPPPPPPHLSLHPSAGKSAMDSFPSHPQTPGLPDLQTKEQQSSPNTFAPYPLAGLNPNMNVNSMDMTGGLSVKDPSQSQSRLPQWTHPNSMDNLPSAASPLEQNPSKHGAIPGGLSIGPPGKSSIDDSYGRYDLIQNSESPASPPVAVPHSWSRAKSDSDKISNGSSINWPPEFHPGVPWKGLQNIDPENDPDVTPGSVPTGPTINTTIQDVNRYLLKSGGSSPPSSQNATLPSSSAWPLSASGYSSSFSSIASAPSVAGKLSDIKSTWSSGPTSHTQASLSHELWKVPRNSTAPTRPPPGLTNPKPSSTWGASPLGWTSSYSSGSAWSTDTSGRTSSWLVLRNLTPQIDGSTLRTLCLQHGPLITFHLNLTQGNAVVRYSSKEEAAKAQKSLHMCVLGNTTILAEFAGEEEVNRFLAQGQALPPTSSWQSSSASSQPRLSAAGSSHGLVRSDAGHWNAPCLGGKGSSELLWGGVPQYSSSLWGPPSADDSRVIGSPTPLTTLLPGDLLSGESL

According to PMC4911916:

What was measured:
[1] = biological target: endogenous Argonaute 2 (AGO2) (human (endogenous in T47D)) (UniProt Q9UKV8); test: affinity purification with mass spectrometry; anti-AGO2 antibody IP of endogenous AGO2 from T47D nuclear extract, no RNase (DNase added); 6 washes in IP300 buffer; control: mouse IgG resin; LC/MS/MS, SINQ
[2] = biological target: endogenous Argonaute 2 (AGO2) (human (endogenous in T47D)) (UniProt Q9UKV8); test: affinity purification with mass spectrometry; anti-AGO2 antibody IP of endogenous AGO2 from T47D nuclear extract, treated with RNase (TurboNuclease); 6 washes in IP300 buffer; control: mouse IgG resin; LC/MS/MS, SINQ
[3] = biological target: endogenous Argonaute 2 (AGO2) (human (endogenous in T47D)) (UniProt Q9UKV8); test: affinity purification with mass spectrometry; anti-AGO2 antibody IP of endogenous AGO2 from T47D cytoplasmic extract, treated with RNase (TurboNuclease); 6 washes in IP300 buffer; control: mouse IgG resin; LC/MS/MS, SINQ
[4] = biological target: Flag-HA-tagged AGO2 (human) (UniProt Q9UKV8); test: affinity purification with mass spectrometry; anti-Flag resin IP of Flag-AGO2 from nuclear extract of the stable T47D line, treated with RNase (TurboNuclease); 6 washes in IP300 buffer; control: Flag IP from T47D extract; LC/MS/MS, SINQ
[5] = biological target: Flag-HA-tagged AGO2 (human) (UniProt Q9UKV8); test: affinity purification with mass spectrometry; anti-Flag resin IP of Flag-AGO2 from cytoplasmic extract of the stable T47D line, no RNase; overnight 4°C; 6 washes in IP300 buffer (300 mM NaCl, 0.05% NP-40); control: Flag IP from T47D extract; LC/MS/MS, SINQ
[6] = biological target: endogenous Argonaute 2 (AGO2) (human (endogenous in T47D)) (UniProt Q9UKV8); test: affinity purification with mass spectrometry; anti-AGO2 antibody (cross-linked to resin) IP of endogenous AGO2 from T47D cytoplasmic extract, no RNase; overnight 4°C; 6 washes in IP300 buffer (300 mM NaCl, 0.05% NP-40); control: mouse IgG resin; LC/MS/MS, SINQ
[7] = biological target: Flag-HA-tagged AGO2 (human) (UniProt Q9UKV8); test: affinity purification with mass spectrometry; anti-Flag resin IP of Flag-AGO2 from cytoplasmic extract of the stable T47D line, treated with RNase (TurboNuclease 1:10,000, 30 min, room temperature); 6 washes in IP300 buffer; control: Flag IP from T47D extract; LC/MS/MS, SINQ
[8] = biological target: Flag-HA-tagged AGO2 (human) (UniProt Q9UKV8); test: affinity purification with mass spectrometry; anti-Flag resin IP of Flag-AGO2 from nuclear extract of the stable T47D line, no RNase (DNase added); 6 washes in IP300 buffer; control: Flag IP from T47D extract; LC/MS/MS, SINQ

Measured: binding

AGO3 (from UniProt Q9H9G7 1-860)
not listed: [8]
binds: all other assays above

Dicer (from UniProt Q9UPY3 1-1922)
binds: [3] | [8] | [5] | [6] | [7]

TNRC6A (GW182) (from UniProt Q8NDV7 1-1962)
not listed: [3]
binds: all other assays above

TNRC6B (from UniProt Q9UPQ9 1-1833)
not listed: [8]
binds: all other assays above

TNRC6C (from UniProt Q9HCJ0 1-1936)
not listed: [3] | [7]
binds: all other assays above

No constants are given. Whether binding was seen depends on the method and setting. In cells and extracts the contact can be indirect. A yes stands for co-enrichment or nearness to the bait. Other partners may have been found.
